Patent publication US20240108723A1
No constants are given. Whether binding was seen depends on the method and setting. Some results given as binding are weak or reduced against the parent protein; the word gives no strength. Values belong to the binder of their own block, whether it stands above or below them.

Amino acid sequences for entries named in this document (tags omitted). Residues count along the entry.
UniProt P15328, residues 25-233: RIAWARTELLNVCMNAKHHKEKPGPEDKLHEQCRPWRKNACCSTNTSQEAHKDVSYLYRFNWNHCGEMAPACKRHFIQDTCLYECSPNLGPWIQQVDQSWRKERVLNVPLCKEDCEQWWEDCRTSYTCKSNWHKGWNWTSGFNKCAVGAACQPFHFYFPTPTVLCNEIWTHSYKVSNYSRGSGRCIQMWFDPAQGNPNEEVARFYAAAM

Legend:
[1] = biological target: biotinylated FOLR1-Fc fusion protein (UniProt P15328); assay: flow cytometry; direct CAR labelling with biotinylated FOLR1-Fc on transduced cells
[2] = biological target: biotinylated FOLR1-Fc fusion protein (UniProt P15328); assay: flow cytometry; titration of biotinylated FOLR1-Fc on CAR T cells, anti-biotin-PE secondary staining

B1: MB-CART FOLR1 D (protein)
chain: DIQLTQSPSSLSASVGDRVTITCSVSSSISSNNLHWYQQKPGKAPKPWIYGTSNLASGVPSRFSGSGSGTDYTFTISSLQPEDIATYYCQQWSSYPYMYTFGQGTKVEIKRTGGGGSGGGGSGGGGSMEVQLVESGGGVVQPGRSLRLSCSASGFTFSGYGLSWVRQAPGKGLEWVAMISSGGSYTYYADSVKGRFAISRDNAKNTLFLQMDSLRPEDTGVYFCARHGDDPAWFAYWGQGTPVTVSSASTKGAAAESKYGPPCPPCPIYIWAPLAGTCGVLLLSLVITLYCKRGRKKLLYIFKQPFMRPVQTTQEEDGCSCRFPEEEEGGCELRVKFSRSADAPAYQQGQNQLYNELNLGRREEYDVLDKRRGRDPEMGGKPRRKNPQEGLYNELQKDKMAEAYSEIGMKGERRRGKGHDGLYQGLSTATKDTYDALHMQALPPR
binding [1]: binds

B3: MB-CART FOLR1 C (protein)
chain: MEVQLVESGGGVVQPGRSLRLSCSASGFTFSGYGLSWVRQAPGKGLEWVAMISSGGSYTYYADSVKGRFAISRDNAKNTLFLQMDSLRPEDTGVYFCARHGDDPAWFAYWGQGTPVTVSSASTKGGGGGSGGGGSGGGGSDIQLTQSPSSLSASVGDRVTITCSVSSSISSNNLHWYQQKPGKAPKPWIYGTSNLASGVPSRFSGSGSGTDYTFTISSLQPEDIATYYCQQWSSYPYMYTFGQGTKVEIKRTAAAESKYGPPCPPCPIYIWAPLAGTCGVLLLSLVITLYCKRGRKKLLYIFKQPFMRPVQTTQEEDGCSCRFPEEEEGGCELRVKFSRSADAPAYQQGQNQLYNELNLGRREEYDVLDKRRGRDPEMGGKPRRKNPQEGLYNELQKDKMAEAYSEIGMKGERRRGKGHDGLYQGLSTATKDTYDALHMQALPPR
binding [1]: binds
binding [2]: binds

More lines, now with the values ahead:

binding [1]: binds
B2: MB-CART FOLR1 H (protein)
chain: DIVLTQSPLSLAVSLGQPAIISCKASQSVSFAGTSLMHWYHQKPGQQPRLLIYRASNLEAGVPDRFSGSGSKTDFTLTISPVEAEDAATYYCQQSREYPYTFGGGTKLEIKRTGGGGSGGGGSGGGGSMQVQLVQSGAEVVKPGASVKISCKASGYTFTGYFMNWVKQSPGQSLEWIGRIHPYDGDTFYNQKFQGKATLTVDKSSNTAHMELLSLTSEDFAVYYCTRYDGSRAMDYWGQGTTVTVSSASTKGAAAESKYGPPCPPCPIYIWAPLAGTCGVLLLSLVITLYCKRGRKKLLYIFKQPFMRPVQTTQEEDGCSCRFPEEEEGGCELRVKFSRSADAPAYQQGQNQLYNELNLGRREEYDVLDKRRGRDPEMGGKPRRKNPQEGLYNELQKDKMAEAYSEIGMKGERRRGKGHDGLYQGLSTATKDTYDALHMQALPPR

binding [1]: binds
binding [2]: binds
B4: MB-CART FOLR1 G (protein)
chain: MQVQLVQSGAEVVKPGASVKISCKASGYTFTGYFMNWVKQSPGQSLEWIGRIHPYDGDTFYNQKFQGKATLTVDKSSNTAHMELLSLTSEDFAVYYCTRYDGSRAMDYWGQGTTVTVSSASTKGGGGGSGGGGSGGGGSDIVLTQSPLSLAVSLGQPAIISCKASQSVSFAGTSLMHWYHQKPGQQPRLLIYRASNLEAGVPDRFSGSGSKTDFTLTISPVEAEDAATYYCQQSREYPYTFGGGTKLEIKRTAAAESKYGPPCPPCPIYIWAPLAGTCGVLLLSLVITLYCKRGRKKLLYIFKQPFMRPVQTTQEEDGCSCRFPEEEEGGCELRVKFSRSADAPAYQQGQNQLYNELNLGRREEYDVLDKRRGRDPEMGGKPRRKNPQEGLYNELQKDKMAEAYSEIGMKGERRRGKGHDGLYQGLSTATKDTYDALHMQALPPR
